Experimental data from PubChem BioAssay AID2685 (National Center for Advancing Translational Sciences (NCATS), 2010).
Some of the results follow. Further columns of the screen follow, without active or inactive calls. Compounds called inactive in the main read-out are mostly missing here. Potencies come from curve fits of mixed quality, noted in brackets.

Assay: qHTS Assay for Lipid Storage Modulators in Drosophila S3 Cells;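 on cell number change: cells counted by Cell Tracker Red CMTPX staining in the red channel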
Settings: BODIPY lipid droplet fluorescence, 18-24 h; for cell number change: measured here: cell count max response, cells fed with added oleic acid
Summary of the method: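 Laser-scanning cytometry quantifies lipid droplet accumulation (500–530 nm total intensity; droplet/cell object ratio) in oleic acid-fed (400 uM added) Drosophila S3 cells treated with a concentration series. 20 uM Triacsin C defined 100% inhibition.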

[1] = measured here: lipid fluorescence (Fed channel) AC50, cells fed with added oleic acid
[2] = measured here: cell number channel AC50, cells fed with added oleic acid

In the case of Cc1ccc(OCC(=O)N2CCN(C(=O)c3cccs3)CC2)cc1, the cell number change is reported as 9.46% and the AC50 [1] is reported as 29.1 µM [rising, single point].

In the case of Cc1ccc2nsnc2c1S(=O)(=O)N(Cc1ccco1)Cc1cc2ccc(C)c(C)c2[nH]c1=O, the cell number change is reported as 13.6% and the AC50 [1] is reported as 29.1 µM [rising, single point].

Molecule CCOC(=O)CN(C)Cc1cn(C)nc1-c1ccc(Oc2ccccc2)cc1 has a cell number change of -25.1%.

With C=CCn1c(N2CCOCC2)nc2c1c(=O)[nH]c(=O)n2C the cell number change was -60.5%, the AC50 [2] was 32.6 µM [falling, single point] and the AC50 [1] was 1.64 µM [falling, partial curve].

For COc1ccc(Cc2nc(-c3ccc(NC(=O)c4cccnc4)cc3)no2)cc1, the AC50 [2] was 3.66 µM [rising, single point] and the AC50 [1] was 2.31 µM [rising, partial curve].

In the case of CCc1ccccc1NC(=O)CCOc1ccccc1, the cell number change is reported as 24.7% and the AC50 [1] is reported as 0.92 µM [rising, partial curve].

In the case of CCc1ccccc1NC(=O)Cn1c(=O)n(-c2ccc(CC(=O)NCC3CCCO3)cc2)c(=O)c2ccccc21 (stereo not drawn), the cell number change is reported as -16.7%, the AC50 [2] is reported as 0.58 µM [rising, single point] and the AC50 [1] is reported as 0.651 µM [rising, partial curve, poor fit].

In the case of Cc1cccc(NC(=O)c2ccc(NC(C)c3ccccc3)c([N+](=O)[O-])c2)n1 (stereo not drawn), the cell number change is reported as -4.31% and the AC50 [2] is reported as 6.51 µM [falling, single point].

In the case of COc1ccc(NC(=O)Nc2ccc3c(c2)N(C)C(=O)CS3)cc1OC, the cell number change is reported as 12.1% and the AC50 [1] is reported as 2.06 µM [rising, partial curve].

In the case of COC(=O)c1cc(C(=O)OCC(=O)N(C)C2CCS(=O)(=O)C2)cc([N+](=O)[O-])c1 (stereo not drawn), the cell number change is reported as 5.08% and the AC50 [1] is reported as 0.206 µM [falling, full curve, poor fit].

Molecule O=C(COC(=O)C(Cc1ccccc1)NC(=O)c1ccco1)NC1CC1 (stereo not drawn) has a cell number change of -24.8%.

Work on COc1ccc(/C(C)=N/NC(=S)NCCc2ccccc2)c(O)c1 yielded a cell number change of -13.2%.

With O/N=C\c1cccn1-c1nccs1 the AC50 [2] was 0.731 µM [rising, partial curve] and the AC50 [1] was 0.58 µM [rising, single point].

In the case of Nc1nonc1NC(=O)NN=C1CCCCC1, the cell number change is reported as 51.5%, the AC50 [2] is reported as 29.1 µM [rising, single point] and the AC50 [1] is reported as 18.4 µM [rising, single point].

In the case of COc1cccc(-n2c(=O)c3sccc3n(CC(=O)NC3CCCCC3)c2=O)c1, the cell number change is reported as 4.62% and the AC50 [1] is reported as 29.1 µM [rising, single point].

For O=C(CNS(=O)(=O)c1ccc(Br)s1)N1CCN(C(=O)c2ccco2)CC1, the cell number change was -38.4%, the AC50 [2] was 32.6 µM [falling, partial curve, poor fit] and the AC50 [1] was 29.1 µM [rising, single point].

In the case of Cc1cccc(C(=O)NC2CCN(C(=S)NCc3ccco3)CC2)c1, the cell number change is reported as -1.15% and the AC50 [1] is reported as 0.651 µM [falling, partial curve, poor fit].

For CCS(=O)(=O)c1ccc2oc(Nc3ccccc3C)nc2c1, the cell number change was 2.36% and the AC50 [1] was 0.0731 µM [rising, full curve, poor fit].

With CSc1ccc(/C=N/NC(=O)CN2CCN(Cc3ccc(Cl)cc3)CC2)cc1 the cell number change was -2% and the AC50 [1] was 6.51 µM [falling, single point].

In the case of CCOC(=O)C1=C(COC(=O)c2cccc(Br)c2)NC(=O)NC1C (stereo not drawn), the cell number change is reported as -0.54% and the AC50 [1] is reported as 1.3 µM [falling, full curve].

In the case of CC(=O)c1ccc(OCC(=O)N(C)CC(=O)Nc2ccc(N3CCOCC3)cc2)cc1, the cell number change is reported as -8.76% and the AC50 [1] is reported as 13 µM [rising, single point].

In the case of CCOc1ccc(NC(=S)NNC(=O)c2cc(Br)ccc2Cl)cc1, the cell number change is reported as -34% and the AC50 [2] is reported as 20.6 µM [falling, single point].

For Nc1c(C(=O)Nc2ccc(S(=O)(=O)N3CCCC3)cc2)sc2nc3ccc(OC(F)(F)F)cc3cc12, the cell number change was -74%, the AC50 [2] was 29.1 µM [falling, single point] and the AC50 [1] was 11.6 µM [falling, partial curve].

With O=C(NCCCO)C(=O)c1c(-c2ccccc2)cc2ccccn12 the cell number change was -10.9% and the AC50 [1] was 3.66 µM [rising, single point].

With CCOC(=O)C1=C(C)N=c2s/c(=C\c3cccc(OCC(=O)O)c3)c(=O)n2C1c1ccccc1 (stereo not drawn) the cell number change was -15.8%.

In the case of CCCCS(=O)(=O)NC1=NCN(CCO)CN1, the cell number change is reported as -58.4%, the AC50 [2] is reported as 29.1 µM [falling, single point] and the AC50 [1] is reported as 29.1 µM [falling, single point].

Molecule CCOC(=O)Cc1csc(NC(=O)CCCN2C(=O)c3ccccc3C2=O)n1 has a cell number change of 8.28%.

With CCOc1ccc(C2C(C(=O)O)c3ccccc3C(=O)N2CCN2CCOCC2)cc1 (stereo not drawn) the AC50 [2] was 2.06 µM [falling, partial curve].

With Cc1ccc(N/N=C(\Cc2nc3ccccc3[nH]2)c2ccccc2)cc1 the cell number change was -15.3% and the AC50 [1] was 29.1 µM [falling, single point].

For Cc1ccc(C(=O)O/N=C(\N)Cc2cccc3ccccc23)cc1, the cell number change was 124%, the AC50 [2] was 29.1 µM [rising, single point] and the AC50 [1] was 29.1 µM [falling, single point].

With Cc1nc(SCC(=O)N2c3ccccc3NC(=O)CC2C)c2c(C)c(C)sc2n1 (stereo not drawn) the AC50 [1] was 20.6 µM [falling, partial curve].

For CCOC(=O)c1c(NC(=O)COC(=O)c2ccc(O)cc2)sc(C(=O)N(C)C)c1C, the cell number change was 20.6% and the AC50 [1] was 0.731 µM [falling, single point].

With CN(CC(=O)Nc1cccc(Cl)c1)S(=O)(=O)c1ccc2c(c1)n(C)c(=O)c(=O)n2C the cell number change was -23.3% and the AC50 [1] was 6.51 µM [falling, single point].

With CC(C)CC(C)c1cc(N)nc2nc3ccccc3n12 (stereo not drawn) the cell number change was -51.6%, the AC50 [2] was 29.1 µM [falling, single point] and the AC50 [1] was 20.6 µM [falling, single point].

Molecule CC(=O)Nc1ccc(S(=O)(=O)NCCNS(=O)(=O)c2ccc(NC(C)=O)cc2)cc1 has a cell number change of 3.7%.

In the case of Cc1cccc(-n2cnc3c(sc4nc(N5CCOCC5)c5c(c43)CCCC5)c2=O)c1, the cell number change is reported as 9.54% and the AC50 [1] is reported as 5.8 µM [rising, single point].

For O=C(c1cccc(NS(=O)(=O)c2cccc([N+](=O)[O-])c2)c1)N1CCOCC1, the cell number change was -32.2%, the AC50 [2] was 0.82 µM [falling, full curve] and the AC50 [1] was 29.1 µM [falling, single point].

CCN(CC)CCCn1c2c(c(SCC(=O)Nc3ccc(F)c(F)c3)nc1=O)CCC2 showed a cell number change of 19.9%.

Molecule CSc1nc(Cl)cc(Nc2ccc(O)cc2)n1 has a cell number change of 24.7%.

In the case of CC(C)NCC(O)COc1cccc2ccccc12 (stereo not drawn), the cell number change is reported as 10.6% and the AC50 [1] is reported as 29.1 µM [rising, single point].

With COc1ccc(OC)c(NC(=O)NCc2ccc(F)cc2)c1 the cell number change was -34.5%, the AC50 [2] was 14.6 µM [falling, partial curve] and the AC50 [1] was 1.16 µM [rising, full curve, poor fit].

For COC(=O)CC[C@@H](C(=O)O)N1C(=O)c2ccccc2C1=O, the cell number change was -49.2%, the AC50 [2] was 11.6 µM [falling, partial curve] and the AC50 [1] was 0.0058 µM [falling, full curve, poor fit].

Molecule CCOC(=O)c1nnn(-c2nonc2-n2cccc2)c1CCl has a cell number change of 4.3%.

With CCCCNC(=O)C(=O)N/N=C/c1ccc(OCc2ccccc2)cc1 the cell number change was -11.4% and the AC50 [1] was 4.11 µM [falling, full curve, poor fit].

For COc1ccc(NC(=O)CN(C)C(=O)c2cccc(-n3cccc3)c2)cc1, the AC50 [2] was 0.461 µM [rising, single point].

For CCC(C)c1ccccc1N1CC(C(=O)Nc2ccc(S(=O)(=O)N3CCOCC3)cc2)CC1=O (stereo not drawn), the cell number change was -0.733% and the AC50 [1] was 18.4 µM [falling, single point].

In the case of O=C(Nc1ccc(F)cc1)c1ccc(-n2cncn2)c([N+](=O)[O-])c1, the cell number change is reported as -0.152% and the AC50 [1] is reported as 2.06 µM [rising, partial curve].

In the case of CCC(C)NC(=O)CSc1nnc(-c2ccncc2)n1-c1ccc(OC)cc1 (stereo not drawn), the cell number change is reported as -9.34% and the AC50 [2] is reported as 2.06 µM [rising, partial curve].

With COc1ccc(-n2c(SCC(=O)C(C)(C)C)nc3ccsc3c2=O)cc1 the cell number change was 26.1% and the AC50 [1] was 29.1 µM [rising, single point].

In the case of Cc1cnc(C(=O)OCC(=O)NC(=O)c2ccccc2)cn1, the cell number change is reported as -69%, the AC50 [2] is reported as 29.1 µM [falling, single point] and the AC50 [1] is reported as 0.411 µM [rising, full curve].

With O=C(NC(Cc1ccccc1)C(=O)N1CCN(c2ccccc2O)CC1)c1ccccc1 (stereo not drawn) the cell number change was 24.8% and the AC50 [1] was 13 µM [rising, single point].

For CC(C)Cn1c(-c2ccc(Br)cc2)c[nH]c1=S, the cell number change was -51.1%, the AC50 [2] was 29.1 µM [falling, single point] and the AC50 [1] was 29.1 µM [falling, single point].

In the case of O=C(CCN1CCN(CCO)CC1)Nc1ccc(OCc2ccccc2)cc1, the cell number change is reported as 34.1%, the AC50 [2] is reported as 29.1 µM [rising, single point] and the AC50 [1] is reported as 6.51 µM [falling, single point].

With COc1ccc(CC(=O)OCC(=O)Nc2cccc(Cl)c2)cc1 the cell number change was 59%, the AC50 [2] was 4.61 µM [rising, full curve, poor fit] and the AC50 [1] was 6.51 µM [rising, single point].

For CN1CCN(c2ccc(S(=O)(=O)N3CCCCC3)cc2N)CC1, the cell number change was -10.5% and the AC50 [1] was 0.058 µM [falling, full curve, poor fit].

For COC(=O)Nc1ccc2c(c1)N(C(=O)CCN1CCN3CCCC3C1)c1ccccc1CC2 (stereo not drawn), the cell number change was -27.6% and the AC50 [2] was 0.731 µM [rising, single point].

In the case of Cc1noc(/C=C/c2ccco2)c1S(=O)(=O)N1CCC(C(=O)NCc2ccco2)CC1, the cell number change is reported as -20.7%, the AC50 [2] is reported as 2.91 µM [falling, single point] and the AC50 [1] is reported as 6.51 µM [rising, partial curve].
